The target in test [1] is T1, CAV1 (mouse (endogenous in AML12)) (UniProt P49817).
T1 sequence: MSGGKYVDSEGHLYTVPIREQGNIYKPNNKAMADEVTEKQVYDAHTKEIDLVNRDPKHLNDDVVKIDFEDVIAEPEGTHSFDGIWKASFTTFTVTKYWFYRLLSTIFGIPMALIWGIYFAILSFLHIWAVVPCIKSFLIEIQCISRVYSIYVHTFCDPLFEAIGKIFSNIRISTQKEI
Kind of test: co-IP; pre-cleared lysate of serum-starved AML12 hepatocytes, with or without 2 μM Dasatinib (SRC inhibitor) for 2 h, no rMSA; CAV1 antibody on Protein A+G magnetic beads overnight at 4 °C; blot for EGFR.

The target in test [2] is T1, CAV1 (mouse (endogenous in AML12)). Kind of test: co-IP; as a1, but the AML12 hepatocytes were treated with rMSA (600 μM) for 2 h, in the absence or presence of 2 μM Dasatinib; CAV1 antibody on Protein A+G magnetic beads overnight at 4 °C; blot for EGFR.
The target is the same in test [3]. Kind of test: condition: only cells treated with rMSA (600 μM) for 2 h; co-IP; as a1, but the AML12 hepatocytes were treated with rMSA (600 μM) for 2 h, in the absence or presence of 2 μM Dasatinib; CAV1 antibody on Protein A+G magnetic beads overnight at 4 °C; blot for EGFR.

No constants are given. Whether binding was seen depends on the method and setting. In cells and extracts the contact can be indirect. Some entries that bind do so weakly or less than the wild type.

As to “epidermal growth factor receptor (EGFR) (from UniProt Q01279 25-1210)”, the binding result in test [1] is recorded as “binds”; in test [2], “binds”; in test [3], “no binding”.

Values taken from paper PMC9903539.
